This is an account of results in PubChem BioAssay AID192 (DTP/NCI, 2004).

For the test, the system named is BDF1 mice, B16 melanoma ip, median survival T/C. The experiment in a line: NCI In Vivo Anticancer Drug Screen. Data for tumor model B16 Melanoma (intraperitoneal) in B6D2F1 (BDF1) mice. The conditions noted are these: T/C endpoint: median survival time, higher T/C = longer survival. In a few lines:
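Vehicle-treated animals serve as the reference (C); treated animals (T) are scored for survival or tumor size after tumor transplantation.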

Where [1] appears, read: dose: 25.0 mg/kg/injection, schedule: Q01DX009 (ip), vehicle: saline.
[2] abbreviates: dose: 50.0 mg/kg/injection, schedule: Q01DX009 (ip), vehicle: saline.
Where [3] appears, read: dose: 25.0 mg/kg/injection, schedule: Q01DX009 (ip), vehicle: Klucel (hydroxypropylcellulose) (HPC).
The mark [4] stands for this setting: dose: 50.0 mg/kg/injection, schedule: Q01DX009 (ip), vehicle: Klucel (hydroxypropylcellulose) (HPC).
Setting [5] is: dose: 200.0 mg/kg/injection, schedule: Q01DX009 (ip), vehicle: Klucel (hydroxypropylcellulose) (HPC).
The mark [6] stands for this setting: dose: 400.0 mg/kg/injection, schedule: Q01DX009 (ip), vehicle: Klucel (hydroxypropylcellulose) (HPC).
[7] abbreviates: dose: 400.0 mg/kg/injection, schedule: Q01DX009 (ip), vehicle: saline.
Setting [8] is: dose: 50.0 mg/kg/injection, schedule: Q01DX009 (ip), vehicle: saline with Tween-80.
Where [9] appears, read: dose: 200.0 mg/kg/injection, schedule: Q01DX009 (ip), vehicle: saline with Tween-80.
[10] abbreviates: dose: 12.5 mg/kg/injection, schedule: Q01DX009 (ip), vehicle: Klucel (hydroxypropylcellulose) (HPC).

The list does not hold the whole screen: it gathers tests that were run many times, whatever their T/C, doses with no T/C, and many T/C values between a quarter and a half above the control. Other doses and runs of a compound stand elsewhere. T/C gives the treated animals as a percentage of the vehicle group. Some doses have a count of surviving animals in place of a T/C: the source holds a T/C of zero for them, seemingly a mark for toxic or unscored doses. Some survivor counts are full or nearly so, which does not show that the dose was tolerated: survival well below the control is almost never listed, so the zero probably covers shortened survival too. Counts of survivors are from the toxicity check (mostly the fifth day) where no day follows; animals may have died later. Schedule codes are those of the source, read here as Q, the interval in days (D) or hours (H), X, the number of doses. Marks such as (2×) give the number of equal values in this list. Some entries were tested several times; the values are given in rising order. Some molecules as drawn cover several salts, stereoisomers or complexes of the source; a dose is that of the sample tested. For survival time, the PubChem record calls one and a half times the control and up active, and a quarter to a half above the control has no call in these data; cut-offs in other NCI protocols can differ. Peptide text beside a SMILES is read from it. * marks the point of attachment. CH2Cl = ClC*

`CN1C2CCC1CC(OC1c3ccccc3CCc3ccccc31)C2` (centres undefined): the survivor count is recorded as 8 of 10 under setting [1] and 8 of 10 under setting [2].
Take `CNC(=S)N/N=C/CCC/C=N/NC(=S)NC`: the survivor count is 6 of 6 (dose: 62.5 mg/kg/injection, schedule: Q01DX009 (ip), vehicle: saline with Tween-80) and 6 of 6 (dose: 125.0 mg/kg/injection, schedule: Q01DX009 (ip), vehicle: saline with Tween-80).
In the case of `CCC1(O)CC(OC2CC(N(C)C)C(OC3CC4OC5CC(=O)C(C)OC5OC4C(C)O3)C(C)O2)c2c(cc3c(c2O)C(=O)c2c(O)ccc(O)c2C3=O)C1C(=O)OC` (centres undefined), the survivor count was 10 of 10 (dose: 3.0 mg/kg/injection, schedule: Q01DX009 (ip), vehicle: saline); 4 of 10 (dose: 6.0 mg/kg/injection, schedule: Q01DX009 (ip), vehicle: saline); 8 of 10 (dose: 6.0 mg/kg/injection, schedule: Q04DX003 (ip), vehicle: saline).
With `CCCCCCC(C)NCC(O)COc1cccc(C)c1` (centres undefined), the survivor count is 9 of 10 under setting [3] and 2 of 10 under setting [4].
With `CC1(CC(C)(C)C2CCCCC2)OCCO1`, the survivor count (dose: 100.0 mg/kg/injection, schedule: Q01DX009 (ip), vehicle: other) is given as 10 of 10.
Consider `CCOC(=O)NC(C)(C)CC(C)(C)C`, for which the survivor count under setting [5] is 5 of 10 and the survivor count under setting [6] is given as 4 of 10.
`CCCCCC/C=C/[N+]([O-])=NC(COC)C(C)O` (centres undefined): the survivor count (dose: 20.0 mg/kg/injection, schedule: Q01DX009 (ip), vehicle: Klucel (hydroxypropylcellulose) (HPC)) is given as 10 of 10.
Regarding `Cc1nn(CCO)c(C)c1N=[N+]([O-])c1c(C)nn(CCO)c1C`, the survivor count is listed as 10 of 10 (dose: 30.0 mg/kg/injection, schedule: Q01DX011 (ip), vehicle: saline with Tween-80) and 10 of 10 (dose: 60.0 mg/kg/injection, schedule: Q01DX011 (ip), vehicle: saline with Tween-80).
Take `CN(C)CCC(c1ccccc1)c1cc(Cl)ccn1` (centres undefined): the survivor count is recorded as 0 of 10 (dose: 200.0 mg/kg/injection, schedule: Q01DX009 (ip), vehicle: saline) and 0 of 10 under setting [7].
Regarding `COc1ccc(-n2c(=S)[nH]c3ccccc3c2=O)cc1`, the survivor count under setting [6] is given as 6 of 10.
Take `Cc1cc2c3ccccc3ccc2[n+]2ccccc12`: the survivor count runs as follows: under setting [1], 5 of 10; under setting [2], 1 of 10.
In the case of `ClC1=C(Cl)C2(Cl)C3C(Cl)C(Cl)CC3C1(Cl)C2(Cl)Cl` (centres undefined), the survivor count runs as follows: under setting [8], 7 of 10; (dose: 100.0 mg/kg/injection, schedule: Q01DX009 (ip), vehicle: saline with Tween-80) 9 of 10; under setting [9], 3 of 10.
Consider `Nc1nc(N)c2nc(CNc3ccc(C(=O)NC(CCC(=O)O)C(=O)O)cc3)cnc2n1` (centres undefined), for which the survivor count was 6 of 6 (2×) (dose: 0.06 mg/kg/injection, schedule: Q01DX009 (ip), vehicle: saline with Tween-80); 6 of 6 (dose: 0.13 mg/kg/injection, schedule: Q01DX009 (ip), vehicle: saline with Tween-80); 5 of 6 (dose: 0.5 mg/kg/injection, schedule: Q01DX009 (ip), vehicle: saline with Tween-80).
Take `O=C(CCl)N1CCC2(CC1)SSC1(CCN(C(=O)CCl)CC1)S2`: the survivor count under setting [8] is reported as 10 of 10.
`O=C(CN1CCCCC1)Nc1cccc(C(F)(F)F)c1`: the survivor count under setting [6] is recorded as 8 of 10.
As to `O=C(Oc1ccc(Cl)cc1Cl)c1ccc([N+](=O)[O-])cc1`, the survivor count under setting [4] is on record as 10 of 10; the survivor count (dose: 100.0 mg/kg/injection, schedule: Q01DX009 (ip), vehicle: Klucel (hydroxypropylcellulose) (HPC)) is 10 of 10; the survivor count under setting [5] is given as 10 of 10; the survivor count under setting [6] is recorded as 9 of 10.
Consider `CC1CC(NC(=S)S)CC(C)(C)C1` (centres undefined), for which the survivor count is, setting by setting: (dose: 2.5 mg/kg/injection, schedule: Q01DX009 (ip), vehicle: Klucel (hydroxypropylcellulose) (HPC)) 10 of 10; (dose: 5.0 mg/kg/injection, schedule: Q01DX009 (ip), vehicle: Klucel (hydroxypropylcellulose) (HPC)) 10 of 10; (dose: 10.0 mg/kg/injection, schedule: Q01DX009 (ip), vehicle: Klucel (hydroxypropylcellulose) (HPC)) 10 of 10; under setting [10], 10 of 10; under setting [3], 10 of 10; under setting [4], 10 of 10.
Turning to `O=C(CCCN1CCC(O)(c2ccc(Cl)cc2)CC1)c1ccc(F)cc1`, the survivor count under setting [1] is listed as 10 of 10.
Turning to `CC1=CC(C)(C)Nc2ccc(CSc3ccccc3)cc21`, the survivor count by setting is: (dose: 12.5 mg/kg/injection, schedule: Q01DX009 (ip), vehicle: DMSO) 10 of 10 and 8 of 8; (dose: 25.0 mg/kg/injection, schedule: Q01DX009 (ip), vehicle: DMSO) 10 of 10 and 8 of 8; (dose: 50.0 mg/kg/injection, schedule: Q01DX009 (ip), vehicle: DMSO) 10 of 10 and 7 of 7; (dose: 100.0 mg/kg/injection, schedule: Q01DX009 (ip), vehicle: DMSO) 5 of 8 and 9 of 10; (dose: 200.0 mg/kg/injection, schedule: Q01DX009 (ip), vehicle: DMSO) 2 of 10 and 3 of 8; (dose: 200.0 mg/kg/injection, schedule: Q01DX009 (ip), vehicle: saline + Tween-80 + alcohol) 5 of 10. For the same compound, the survivor count (dose: 400.0 mg/kg/injection, schedule: Q01DX009 (ip), vehicle: DMSO) was 0 of 10 and 0 of 8; the survivor count (dose: 400.0 mg/kg/injection, schedule: Q01DX009 (ip), vehicle: saline + Tween-80 + alcohol) is reported as 0 of 10.
For the compound `O=C(Nc1ccccc1)Nc1cc(C(F)(F)F)ccc1Cl`, the survivor count (dose: 100.0 mg/kg/injection, schedule: Q04DX003 (ip), vehicle: carboxymethylcellulose (CMC)) is reported as 9 of 10.
For the compound `CSCCC(NC(=O)CN(C)C(=O)OCc1ccccc1)C(=O)O` (centres undefined), the survivor count runs as follows: under setting [9], 3 of 10; (dose: 400.0 mg/kg/injection, schedule: Q01DX009 (ip), vehicle: saline with Tween-80) 0 of 10.
On to `c1nnc(NCNc2nncs2)s1`, for which the T/C (dose: 12.5 mg/kg/injection, schedule: Q01DX009 (ip), vehicle: saline) was 125 % of control. Also, the survivor count is 10 of 10 under setting [2]; 5 of 10 (dose: 100.0 mg/kg/injection, schedule: Q01DX009 (ip), vehicle: saline); 8 of 10 (dose: 200.0 mg/kg/injection, schedule: Q04DX003 (ip), vehicle: saline); 4 of 10 (dose: 400.0 mg/kg/injection, schedule: Q04DX003 (ip), vehicle: saline).
Turning to `O=C(NO)c1ccccc1`, the survivor count was 7 of 10 (dose: 200.0 mg/kg/injection, schedule: Q01DX009 (ip), vehicle: suspension in saline); 7 of 10 (dose: 266.0 mg/kg/injection, schedule: Q04DX003 (ip), vehicle: saline with Tween-80); 6 of 10 under setting [7]; 4 of 10 (dose: 400.0 mg/kg/injection, schedule: Q01DX009 (ip), vehicle: suspension in saline); 8 of 10 (dose: 400.0 mg/kg/injection, schedule: Q04DX003 (ip), vehicle: saline with Tween-80).
Regarding `CC(=O)NC(CC(C)C)C(=O)NC(Cc1ccccc1)C(=O)CCl` (stereo not drawn) (Ac-Leu-Phe-CH2Cl; configuration not given here), the survivor count is on record as 10 of 10 under setting [10] and 10 of 10 under setting [3].
Turning to `c1ccc([Te][Te]c2ccccc2)cc1`, the T/C by setting is: (dose: 12.0 mg/kg/injection, schedule: Q01DX009 (ip), vehicle: saline with Tween-80) 129 % of control; (dose: 24.0 mg/kg/injection, schedule: Q01DX009 (ip), vehicle: saline with Tween-80) 142 % of control.
